Results published in US6683052B1, “Lipopeptides containing an interferon-γ fragment, and uses thereof in pharmaceutical compositions” (Institut National de la Sante et de la Recherche Medicale …, priority 1998, dated 2004).
At least one peptide structure holds a part that was inferred or is arguable (an end, a ring closure or a residue). Where a SMILES comes first, the peptide text is derived from it. The star is where a group is joined. Palmitoyl = CCCCCCCCCCCCCCCC(=O)*

How the values were obtained:
P388D1 = assay: Induction of class II CMH molecules on P388D1 cell line, flow cytometry; type: cell-based, murine; conditions: 50 μM, stimulated for 24 hours
Protocol: (§1) Principle: to check the induction of class II CMH molecules on cell lines (P388D1 and WEHI3: murine myelomonocytes) with the above-mentioned peptides.
(§2) Procedure. The cells are cultured the day before at a rate of 3×10^5 cells per well in 24-well culture plates (NUNC). The following day, the cells are stimulated with the various lipopeptide and peptide constructs at a final concentration of 50 μM in 1 ml of medium. After incubation for 24 hours at 37° C. in an atmosphere saturated with 5% CO2, the cells are recovered and incubated for 1 hour at 4° C. with 3 μg of a biotinylated mouse anti-I-Ad monoclonal antibody (Pharmingen, San Diego, USA). After revelation for 30 minutes with FITC streptavidin used at a dilution of 1:100 (Sigma, St. Louis, USA), the expression of class II molecules is determined by flow cytometry.

WEHI3 = assay: Induction of class II CMH molecules on WEHI3 cell line, flow cytometry; type: cell-based, murine; conditions: 50 μM, stimulated for 24 hours
Protocol: as §1, §2

splenocytes = assay: Expression of class II CMH molecules and Fc-γ receptors on splenocytes taken from an animal; type: cell-based, Balb/c mouse; conditions: 50 μM, 24 hours
Protocol: (§3) Principle: to evaluate the activity of the vectorized agonist on cells taken from an animal and treated in vitro (in order to assess the value of a subsequent in vivo study).
(§4) Procedure. The splenocytes and peritoneal cells taken from an animal (Balb/c mouse) are re-cultured at a rate of 2.5×10^6 splenocytes and […] peritoneal cells per well in 24-well plates (NUNC) stimulated with 50 μM of the different peptides in a final volume of 1 ml. After stimulation for 24 hours, the cells are labelled with the anti IA^d monoclonal antibody described in the preceding paragraph, according to the same protocol. To detect the Fc-γ R, the cells are labelled with 1 μg of a rat anti Fc-γ R monoclonal antibody (Pharmingen, San Diego, USA). Next, the cells are incubated for ½ hour with a rat anti IgG biotinylated polyclonal antibody. The revelation is then carried out with FITC streptavidin used at a dilution of 1:100 (Sigma, St. Louis, USA). The expression of Fc-γ R is determined by flow cytometry.

peritoneal cells = assay: Expression of class II CMH molecules and Fc-γ receptors on peritoneal cells taken from an animal; type: cell-based, Balb/c mouse; conditions: 50 μM, 24 hours, flow cytometry
Protocol: as §3, §4

[1] = test system: splenocytes taken from mice 129 (Wild type: WT); assay: Involvement of the IFN-γ receptor: IA^d and Fc-γ R on splenocytes of wild type mice 129; type: cell-based
Protocol: as §4
(§5) Principle. to confirm that the biological activity observed was effectively associated with a stimulation of the IFN-γ receptor, we repeated the same experiments, in parallel on splenocytes taken from mice 129 (Wild type: WT) and on cells taken from mice 129 no longer expressing the alpha chain of the IFN-γ receptor (KO mice).
(§6) Procedure. The experimental protocol followed is identical to that described in paragraph 2 above.

[2] = test system: cells taken from mice 129 no longer expressing the alpha chain of the IFN-γ receptor (KO mice); assay: Involvement of the IFN-γ receptor: IA^d and Fc-γ R on cells of mice lacking the alpha chain of the IFN-γ receptor; type: cell-based
Protocol: as §4, §5, §6

[3] = test system: human dermal cells (HMVECd); assay: Expression of VCAM-1 on human dermal cells, cell-ELISA; type: cell-based; conditions: 25 and 50 μM, 24 hours, dose-dependent
[4] = test system: human colon carcinoma cells (COLO 205); assay: Induction of HLA-DR on COLO 205 cell line, flow cytometry; type: cell-based; conditions: COLO 205, 50 μM
Protocol: Principle: human colon carcinoma cells (COLO 205) are analysed for their ability to express HLA-DR after having been stimulated with the various peptide constructs.
Procedure. The cell line COLO 205 is cultured at a rate of 3×10^5 cells per well in a 24-well culture plate (NUNC). The following day, the cells are stimulated with the various peptide constructs at a final concentration of 50 μM in 1 ml of medium, and are incubated at 37° C. for 24 hours. The cells are then recovered and labelled using 3 μg of an anti HLA-DR mouse biotinylated monoclonal antibody (clone L243). After revelation with FITC streptavidin, the cells are analysed by flow cytometry.

[5] = test system: human peripheral blood mononuclear cells (PBMC); assay: Induction of HLA-DR, ICAM-1 and VCAM-1 on human PBMC; type: cell-based
Protocol: Principle. In the light of the results obtained on the human cell line and on human primary cultures, the immunostimulatory potential of MuL was evaluated on human cells taken directly from a healthy donor.
Procedure. PBMCs are isolated from a bag of blood and the cells are then cultured and stimulated for 24 hours with 25 and 50 μM of MuSL or MuL in a final volume of 1 ml. The cells are then recovered and labelled for the expression of VCAM-1, ICAM-1 and HLA-DR according to the protocol already described above. Finally, the cells are analysed by flow cytometry.

[6] = test system: splenocytes stimulated with anti-CD40 and IL-4; assay: Inhibition of IL-4 activity: anti-CD40 + IL-4 proliferation of splenocytes, tritiated thymidine; type: cell-based, Balb/c mice; conditions: 10 μM
From the text: It is commonly described that the immunomodulatory potential of IFN-γ lies in its ability to polarize the establishment of a type-1 T helper (Th1) response, while at the same time inhibiting the development of a type-2 T helper (Th2) response. This inhibitory action on the polarization of the Th2 response takes place mainly via inhibition of the activity of IL-4. […] The stimulation of splenocytes with an anti-CD40 antibody (antibody directed against a surface cell label: CD40) and IL-4 induces a proliferation of the murine B cells, following a synergistic action between the CD40 and IL-4 stimulation (Hasbold et al. 1994).
The splenocytes taken from Balb/c mice are cultured and stimulated with anti-CD40 (10 μg/ml) and IL-4 (10 U/ml). 10 μM of the synthetic agonist of IFN-γ (MuL) or of its control lipopeptide (MuSL) are added. After stimulation for 24 hours, tritiated thymidine is added at a rate of 0.5 μCurie per well. After incubation for 18 hours, the cells are filtered off and the incorporation of tritiated thymidine is evaluated. This incorporation is proportional to the cell proliferation.

[7] = test system: splenocytes taken from IFN-γR KO animals; assay: Anti-CD40 + IL-4 proliferation of splenocytes from IFN-γR KO mice; type: cell-based
[8] = test system: splenocytes taken from WT animals; assay: Anti-CD40 + IL-4 proliferation of splenocytes from WT mice; type: cell-based
[9] = test system: murine splenocytes stimulated with anti-CD40; assay: Synthesis of immunoglobulins by murine splenocytes stimulated in vitro with anti-CD40; type: cell-based; conditions: anti-CD40 10 μg/ml + 10 μM
[10] = test system: mice transgenic for the T cell receptor recognizing the Ova peptide (323-339); assay: Ex vivo and in vivo study: immunization with Ova peptide, immunoglobulin isotypes by ELISA after re-stimulation of splenocytes
murine splenocytes = assay: Induction of class II CMH molecules (IA^b) on murine splenocytes by lipopeptide fragments (FIG. 12A); type: cell-based, 129 Sv mice
Protocol: (§7) Fresh splenocytes are obtained from 7-week-old female 129 Sv mice. The COLO 205 human colon carcinoma lines are obtained from the ATCC (American Type Culture Collection). The splenocytes and COLO 205 cells are maintained in RPMI 1640 (Gibco BRL, Courbevoie, France), supplemented with 10% FCS (Gibco BRL), sodium pyruvate (Sigma, St. Louis, USA) and incubated at 37° C. in 5% CO2.
(§8) The cells were stimulated for 24 hours with different concentrations of MuL, L-mIFNγ 113-132, L-mIFNγ 122-132 or MuSL. […] The cells were incubated for 1 hour at 4° C. in PBS, 10% FCS and then washed, and the expression of II MHC was analysed by flow cytometry using a Coulter EPILS II cytometer (Coulter, Hialeah, Fla., USA) at a rate of 10,000 events per sample.
(§9) FIG. 12: Induction of class II CMH molecules by human or murine cells stimulated with lipopeptides derived from IFN-γ. […] The cells were labelled with a monoclonal antibody directed against the class II CMH molecules, and analysed by flow cytometry. The ratio between the average fluorescence intensity of the cells treated with the lipopeptides and between the average fluorescence intensity of the untreated cells is indicated on the y-axis. […]

COLO 205 human cell line = assay: Induction of HLA-DR on COLO 205 cells by lipopeptide fragments (FIG. 12B); type: cell-based
Protocol: as §7, §8, §9

[11] = Circular dichroism studies; type: physicochemical; conditions: 2 mM pH 7 phosphate buffer
Protocol: The circular dichroism measurements on the peptides were carried out at 25° C. using a Jobin-Yvon CD-6 machine at controlled temperature. The scans were carried out with a cell 0.1 cm in length in an average time of 5 sec. The wavelength interval measured ranges from 185 to 260 nm at a scanning step speed of 0.5 nm/step. The scans were carried out on the peptides at neutral pH in a 2 mM phosphate buffer with or without the helix-stabilizing reagent trifluoroethanol (TFE). The peptide concentration was adjusted to a concentration of 20 μM, after determination of the exact amount of a 100 μM solution by quantitative amino acid analysis. The average values of 4 repeat scans were expressed as average molar ellipticity per residue (deg. cm^2 dmol.).

[12] = stimulation for 24 hours, flow cytometry

**Q.** What does the source list for `CCCCCCCCCCCCCCCC(=O)NCCCC[C@H](NC(C)=O)C(=O)N[C@@H](C)C(=O)N[C@@H](CCCCN)C(=O)N[C@@H](Cc1ccccc1)C(=O)N[C@@H](CCC(=O)O)C(=O)N[C@H](C(=O)N[C@@H](CC(N)=O)C(=O)N[C@@H](CC(N)=O)C(=O)N1CCC[C@H]1C(=O)N[C@@H](CCC(N)=O)C(=O)N[C@H](C(=O)N[C@@H](CCC(N)=O)C(=O)N[C@@H](CCCNC(=N)N)C(=O)N[C@@H](CCC(N)=O)C(=O)N[C@@H](C)C(=O)N[C@@H](Cc1ccccc1)C(=O)N[C@@H](CC(N)=O)C(=O)N[C@@H](CCC(=O)O)C(=O)N[C@@H](CC(C)C)C(=O)N[C@H](C(=O)N[C@@H](CCCNC(=N)N)C(=O)N[C@H](C(=O)N[C@H](C(=O)N[C@@H](Cc1c[nH]cn1)C(=O)N[C@@H](CCC(N)=O)C(=O)N[C@@H](CC(C)C)C(=O)N[C@@H](CC(C)C)C(=O)N1CCC[C@H]1C(=O)N[C@@H](CCC(=O)O)C(=O)N[C@@H](CO)C(=O)N[C@@H](CO)C(=O)N[C@@H](CC(C)C)C(=O)N[C@@H](CCCNC(=N)N)C(=O)N[C@@H](CCCCN)C(=O)N[C@@H](CCCNC(=N)N)C(=O)N[C@@H](CCCCN)C(=O)N[C@@H](CCCNC(=N)N)C(=O)N[C@@H](CO)C(=O)N[C@@H](CCCNC(=N)N)C(N)=O)C(C)C)C(C)C)[C@@H](C)CC)C(C)C)C(C)C` [MuL] (Ac-K(Palmitoyl)AKFEVNNPQVQRQAFNELIRVVHQLLPESSLRKRKRSR-NH2)?
**A.** percentage of class II CMH detected by flow cytometry, P388D1 (P388D1): 98%; percentage of class II CMH detected by flow cytometry, WEH1 (WEHI3): 64%; splenocytes II CMH (%) (splenocytes; flow cytometry): 83%; splenocytes RFc (%) (splenocytes; flow cytometry): 75%; increase of IA^d and of Fc-γ R on the treated cells (splenocytes; splenocytes and peritoneal cells): marked increase; peritoneal cells II CMH (%) (peritoneal cells): 60%; peritoneal cells RFc (%) (peritoneal cells): 45%; induction of the expression of IA^d and of Fc-γ R ([1]; cells taken from the wild type animal): capable of inducing the expression; WT mice II CMH (%) [1, 12]: 52%; WT mice RFc (%) [1, 12]: 23%; induction of the expression of IA^d and of Fc-γ R ([2]; cells from animals deficient in the IFN-γ receptor): no similar activity; KO mice II CMR (%) [2, 12]: 4%; KO mice RFc (%) [2, 12]: 3%; induction of VCAM-1 (FIG. 1) [3]: marked induction; induction of the expression of HLA-DR [4]: marked induction; % HLA-DR ([4]; 24 hours, flow cytometry): 46.1%; percentage of ICAM-1 detected on PBMCs ([5]; 25 μM, 24 hours): 44%; percentage of VCAM-1 detected on PBMCs ([5]; 25 μM, 24 hours): 62.6%; percentage of HLA-DR detected on PBMCs ([5]; 50 μM, 24 hours): 98.9%; percentage of ICAM-1 detected on PBMCs ([5]; 50 μM, 24 hours): 67.9%; percentage of VCAM-1 detected on PBMCs ([5]; 50 μM, 24 hours): 97.1%; induction of the surface labels VCAM-1, ICAM-1 and HLA-DR ([5]; PBMC, 25 and 50 μM, dose-dependent): marked induction; effect on the synergistic anti-CD40 + IL-4 proliferation (FIG. 4) [6]: completely abolished; inhibition of anti-CD40 + IL-4 proliferation (FIG. 5) [7]: no inhibitory activity; inhibition of anti-CD40 + IL-4 proliferation (FIG. 6) [8]: able to inhibit the biological activity of IL-4; production of IgG1 (FIG. 8) [9]: potentiates; production of IgG2a (FIG. 7) [9]: potentiates; production of total IgG (FIG. 9) [9]: potentiates; synthesis of IgG2a (FIG. 10) ([10]; 50 μg s.c. 24 hours before immunization with Ova): potentiates; synthesis of IgG1 (FIG. 11) ([10]; immunization with MuL+Ova): does not potentiate; production of IgG2a (FIG. 10) ([10]; immunized s.c. with Ova + 50 μg MuL, aCD40+MuL re-stimulation): potentiation; increase in the expression of class II CMH molecules (murine splenocytes; 50 μM, splenocytes freshly obtained from mice): 13 fold; increase in class II CMH molecules (FIG. 12A) (murine splenocytes; murine splenocytes, 24 hours, different concentrations): marked dose-dependent increase; increase in the expression of HLA-DR (COLO 205 human cell line; 50 μM, human cells): 22 fold; increase in class II CMH molecules (FIG. 12B) (COLO 205 human cell line; COLO 205, 24 hours, different concentrations): marked dose-dependent increase; helical (ordered) conformation by CD ([11]; 25% trifluoroethanol): 65%; helical (ordered) conformation by CD ([11]; 50% trifluoroethanol): 72%
